For the assay, the target named is Endogenous Synapsin I (mouse brain) (mouse (endogenous in wild-type mouse brain)) (UniProt O88935). The assay can be described thus: co-IP; wild-type mouse brain lysate; protein A/G agarose beads with USIPP immune serum (anti-Prickle1 blot) or with anti-Prickle1 antibodies (anti-Synapsin I blot), overnight at 4°C; washes in NET-100 buffer.

No constants are given. Whether binding was seen depends on the method and setting. In cells and extracts the contact can be indirect. Some results given as binding are weak or reduced against the parent protein; the word gives no strength.

B1: Endogenous Prickle1 (mouse brain) (protein, UniProt Q3U5C7 1-832)
chain: MPLEMEPKMSKLVFGCQRSSTSDDDSGCALEEYAWVPPGLRPEQIQLYFACLPEEKVPYVNSPGEKHRIKQLLYQLPPHDNEVRYCQSLSEEEKKELQVFSAQRKKEALGRGTIKLLSRAVMHAVCEQCGLQMNGGEVAVFASRAGPGVCWHPSCFVCFTCNELLVDLIYFYQDGKIHCGRHHAELLKPRCSACDEIIFADECTEAEGRHWHMKHFCCLECETVLGGQRYIMKDGRPFCCGCFESLYAEYCETCGEHIGVDHAQMTYDGQHWHATEACFSCAQCKASLLGCPFLPKQGQIYCSKTCSLGEDIHASDSSDSAFQSARSRDSRRSVRMGRSSRSADQCRQSLLLSPALNYKFPGLSGNADDTLSRKLDDVSLASRQGAGFANEEFWKARVEQEASEDPEEWAEHEDYMTQLLLKFGDKNLFQQQSSEVDPRASEHWIPDNMVTNKPEVKPNHQGLASKKYQSDMYWAQSQDGLGDSAYGSHPGPASSRRLQELDLDHGAAGYTHDQSQWYEDSLECLSDLKPEQSIRDSMDSLALSNITGASVDGESKPRPSLYSLQNFEEIEAEDCEKMSNMGTLNSSMLHRSAESLQSLNSGLCPEKILPEEKPAHLPVLRRSKSQSRPQQVKFSDDVIDNGSYDIEIRQPPMSERTRRRAYHFEERGSRPHHHRHRRSRKSRSDNALNLVTERKYSAKDRLRLYTPDNYEKFIQNKSARELQAYMQNANLYSQYAHATSDYALQNPGMNRFLGLCGEDDDSWCSSSTSSSDSEEEGYFLGQPIPQPRPQRFTYYTDDLSSPASALPTPQFTQRTTKSKKKKGHKGKNCIIS
Consider B1, for which the binding result is recorded as “binds”.

The values above are taken from PMC3849077.
